Measurements published in PMC10202183.

Amino acid sequences for entries named in this document (tags omitted).
UniProt Q13283: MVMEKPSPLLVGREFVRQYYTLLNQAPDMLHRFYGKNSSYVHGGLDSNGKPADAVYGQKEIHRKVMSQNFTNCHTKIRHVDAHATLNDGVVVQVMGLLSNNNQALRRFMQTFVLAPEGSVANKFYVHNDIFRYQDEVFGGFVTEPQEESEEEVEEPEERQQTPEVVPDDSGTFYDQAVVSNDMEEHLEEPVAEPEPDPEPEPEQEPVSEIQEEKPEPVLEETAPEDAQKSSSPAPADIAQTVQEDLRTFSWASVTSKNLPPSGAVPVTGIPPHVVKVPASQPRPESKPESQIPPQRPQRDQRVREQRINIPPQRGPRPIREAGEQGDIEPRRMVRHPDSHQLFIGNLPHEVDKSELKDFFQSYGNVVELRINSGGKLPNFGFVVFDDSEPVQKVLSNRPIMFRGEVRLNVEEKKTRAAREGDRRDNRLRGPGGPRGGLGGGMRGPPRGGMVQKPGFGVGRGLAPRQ

Target: T1, C-terminally GFP-tagged SERBP1 (SERPINE1 mRNA binding protein 1), full length (human) (UniProt Q8NC51)
T1 sequence: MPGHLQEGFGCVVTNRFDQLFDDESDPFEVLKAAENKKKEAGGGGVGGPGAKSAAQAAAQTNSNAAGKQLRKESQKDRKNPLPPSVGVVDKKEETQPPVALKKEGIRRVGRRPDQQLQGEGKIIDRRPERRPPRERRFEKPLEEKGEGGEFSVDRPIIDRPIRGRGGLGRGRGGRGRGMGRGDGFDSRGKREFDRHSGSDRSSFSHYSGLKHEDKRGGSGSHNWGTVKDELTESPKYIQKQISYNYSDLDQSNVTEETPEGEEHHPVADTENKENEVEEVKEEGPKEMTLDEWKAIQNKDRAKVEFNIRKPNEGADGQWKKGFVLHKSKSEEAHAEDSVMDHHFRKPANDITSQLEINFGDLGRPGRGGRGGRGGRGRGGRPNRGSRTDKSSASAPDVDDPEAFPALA
Assay: affinity purification with mass spectrometry; anti-GFP IP of GFP-SERBP1 from HEK293 lysate against GFP empty vector; SDS-PAGE, silver staining, LC-MS/MS

G3BP1, endogenous in HEK293 cells (from UniProt Q13283 1-466)
binding: binds

These are yes or no findings as the source states them, for the method shown. In cells and extracts the contact can be indirect. These calls come from enrichment with a bait or labelling near it, and not all partners need be listed. Sequences can lack the tags named with a protein.
